{
  "source": "patent US12535491B2",
  "about": "“Vaccine comprising protein-targeted (PT) extracellular DNA isolated from bacterial matrix” (priority 2018, dated 2026)",
  "molecules": {"B1": {"name": "ITIH2_HUMAN (+1) (protein, UniProt P19823 55-702, looked up)", "Inter-alpha-trypsin inhibitor …": "SLPGESEEMMEEVDQVTLYSYKVQSTITSRMATTMIQSKVVNNSPQPQNVVFDVQIPKGAFISNFSMTVDGKTFRSSIKEKTVGRALYAQARAKGKTAGLVRSSALDMENFRTEVNVLPGAKVQFELHYQEVKWRKLGSYEHRIYLQPGRLAKHLEVDVWVIEPQGLRFLHVPDTFEGHFDGVPVISKGQQKAHVSFKPTVAQQRICPNCRETAVDGELVVLYDVKREEKAGELEVFNGYFVHFFAPDNLDPIPKNILFVIDVSGSMWGVKMKQTVEAMKTILDDLRAEDHFSVIDFNQNIRTWRNDLISATKTQVADAKRYIEKIQPSGGTNINEALLRAIFILNEANNLGLLDPNSVSLIILVSDGDPTVGELKLSKIQKNVKENIQDNISLFSLGMGFDVDYDFLKRLSNENHGIAQRIYGNQDTSSQLKKFYNQVSTPLLRNVQFNYPHTSVTDVTQNNFHNYFGGSEIVVAGKFDPAKLDQIESVITATSANTQLVLETLAQMDDLQDFLSKDKHADPDFTRKLWAYLTINQLLAERSLAPTAAAKRRITRSILQMSLDHHIVTPLTSLVIENEAGDERMLADAPPQDPSCCSGALYYGSKVVPDSTPSWANPSPTPVISMLAQGSQVLESTPPPHVMRVEND"}},
  "tested_on": "heat-resistant proteins of human plasma",
  "assay": "LC/MS of heat-resistant proteins in plasma after exposure to proteinase K and boiling",
  "data": [
    {"molecule": "B1", "values": [
      {"measurement": "N-plasma + pk", "setting": "LC/MS, control plasma with added proteinase K, heated at 100° C. for 5 minutes", "value": 24},
      {"measurement": "Effect (N-plasma + pk vs N-plasma)", "setting": "change on adding proteinase K to normal plasma", "value": "↑"}
    ]}
  ]
}
